Test results taken from PubChem BioAssay (Tox21).
“And” between values parts separate entries of the source, which are not always exact repeats. Identical values can stand only once. The shares of active, inactive and inconclusive entries below differ from those in the screen. For some assays here: Where the call is inconclusive, the potency comes from a doubtful curve fit. The source made the active and inactive calls. Unless noted, calls come from the whole dose curve.

Chains of the proteins cited; added tags and fusions are not shown.
UniProt P14416, whole entry, looked up: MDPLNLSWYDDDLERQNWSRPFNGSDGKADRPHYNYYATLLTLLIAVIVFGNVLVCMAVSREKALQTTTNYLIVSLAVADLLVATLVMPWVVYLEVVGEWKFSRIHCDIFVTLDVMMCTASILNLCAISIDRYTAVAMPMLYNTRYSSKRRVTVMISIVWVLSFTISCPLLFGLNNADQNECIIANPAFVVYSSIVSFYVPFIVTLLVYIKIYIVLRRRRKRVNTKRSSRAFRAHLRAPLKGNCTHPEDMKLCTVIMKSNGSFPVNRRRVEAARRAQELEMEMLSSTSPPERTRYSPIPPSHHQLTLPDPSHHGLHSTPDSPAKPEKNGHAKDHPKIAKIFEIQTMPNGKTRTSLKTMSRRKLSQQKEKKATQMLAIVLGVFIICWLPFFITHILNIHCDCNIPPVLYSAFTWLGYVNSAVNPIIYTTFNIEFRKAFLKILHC

What follows are molecules tested against Beta-2 adrenergic receptor (Homo sapiens) (UniProt P07550) (assay: Adrenergic beta2 receptor (ADRB2) small molecule agonists, cell-based qHTS assay (AID 1963593;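 note: CHO cells stably overexpressing human ADRB2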)). Conditions: CHO-ADRB2 cells, cAMP HTRF, 30 min; at 92.4 µM (top of the series).
Method in brief: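 CHO cells stably over-expressing ADRB2 were plated overnight at 37C, then dosed with compounds plus a stimulation mix containing 100uM IBMX and 25uM Ro-20-1724 for 0.5hr at room temperature. cAMP was measured by HTRF competition, 1hr.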
% is set by controls: 0 for no effect and ±100 for the full control effect.

Row | Compound | activation
1 | CCCCCCn1cc[n+](C)c1 | inactive: 1.36% and inactive: 3.66%
2 | OCCOc1ccccc1 | inconclusive: 30.3% and inactive: -7.28%
3 | O=P(O)(O)CN(CP(=O)(O)O)CP(=O)(O)O | inconclusive: 44.3%
4 | CCCC[N+]1(C)CCCCC1 | inactive: 7.59% and inactive: 7.41% and inactive: 15.3%

What follows are molecules tested against D(2) dopamine receptor (Homo sapiens) (UniProt P14416) (assay: Dopamine D2 receptor (DRD2) small molecule agonists, cell-based qHTS assay (AID 1963594; note: nearly all actives have a fitted effect of over 35% in size)). Conditions: HEK293-DRD2 cAMP HTRF, agonist mode, 30 min; activation: at 92.4 µM (top of the series) unless noted.
Method in brief: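 HEK293 cells stably expressing human DRD2, pre-treated with PDE inhibitor Ro20-1724 (0.1 mM final) and compound 10 min at room temperature, then stimulated with NKH477 (200nM […]) for 30 min. cAMP read by HTRF (665/620 nm).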

Row | Compound | activation | Potency
5 | COc1ccc2c(c1OC)C(=O)O[C@H]2[C@@H]1c2cc3c(cc2CCN1C)OCO3 | inconclusive: 38.6% [at 42.5 µM] | 
6 | Nc1ccccc1Cl |  | inactive
7 | COC(=O)c1sccc1S(=O)(=O)NC(=O)Nc1nc(C)nc(OC)n1 |  | inactive

The molecules below were run against D(2) dopamine receptor (Homo sapiens) (UniProt P14416) (assay: Dopamine D2 receptor (DRD2) small molecule antagonists, cell-based qHTS assay (AID 1963595; active = well fitted inhibition curve with a large enough effect in the signal ratio in the repeat runs, with a control signal flat; inconclusive = weak or mixed curves, or effect the other way; the % refers to the signal ratio; note: potency is the fitted concentration of half-maximal effect)). Conditions: HEK293-DRD2 cAMP HTRF antagonist mode; activity change, negative = inhibition: at 92.4 µM (top of the series) unless noted.
Method in brief: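 HEK293 cells stably expressing DRD2, preincubated with 0.1 mM Ro20-1724 and compounds 10 min, were stimulated with 200 nM NKH477 plus 12 nM quinpirole for 30 min at room temperature; cAMP measured by HTRF (665/620 nm).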

Row | Compound | Potency | activity change, negative = inhibition
8 | CN(C)N=O | inconclusive: 27.3 µM [cytotoxic, single point] | 
9 | OCCOc1ccccc1 |  | inconclusive: 0.563%
10 | CCCC[N+]1(C)CCCCC1 | inactive | 
11 | c1ccc2c(c1)sc1ccccc12 | inconclusive: 13.3 µM [inhibitor, single point] | 
